These are yes or no findings as the source states them, for the method shown. Binding seen in cells or lysates may run through a third protein. Some results given as binding are weak or reduced against the parent protein; the word gives no strength.
Biological target: C. albicans Pkc1p-RBD (aa 371-636) fused to CaGFP (C. albicans) (UniProt P43057)
Assay: pull-down; GFP-Trap Agarose (Chromotek) on lysates (200 µg total protein, NP-40 lysis buffer) of C. albicans cells co-expressing Rho1p-13xcMyc and PKC-RBD-CaGFP; western blot of the eluate with anti-cMyc 9E10; wild type, irs4 and inp51 mutants; stationary phase (overnight) or early exponential phase (4 hours subculture)

Amino acid sequences for entries named in this document (tags omitted). Residues count along the entry.
UniProt P43057, residues 371-636: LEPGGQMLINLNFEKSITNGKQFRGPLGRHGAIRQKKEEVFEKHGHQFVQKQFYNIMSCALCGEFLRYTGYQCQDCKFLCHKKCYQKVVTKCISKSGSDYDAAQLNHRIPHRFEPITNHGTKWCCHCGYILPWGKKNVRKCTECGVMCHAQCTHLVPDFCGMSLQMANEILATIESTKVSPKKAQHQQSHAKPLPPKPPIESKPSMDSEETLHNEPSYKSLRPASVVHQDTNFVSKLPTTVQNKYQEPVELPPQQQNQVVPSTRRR
UniProt O42825: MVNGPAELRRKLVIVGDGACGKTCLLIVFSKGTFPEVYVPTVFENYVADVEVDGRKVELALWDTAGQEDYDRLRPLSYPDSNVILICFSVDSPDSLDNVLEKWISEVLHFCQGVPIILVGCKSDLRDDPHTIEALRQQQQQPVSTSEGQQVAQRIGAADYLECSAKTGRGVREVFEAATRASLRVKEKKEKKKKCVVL

Rho1p-13xcMyc (active Rho1p) (from UniProt O42825 1-198)
binding: binds
